Results: PubChem BioAssay AID2685 (National Center for Advancing Translational Sciences (NCATS), 2010)
The whole screen tested about 320,000 compounds, of which about 2,100 (0.66%) were called active. This list was built around the results that the source calls inconclusive (neither active nor inactive); the mix of calls is not that of the screen. The call rests on the fitted dose curve; in most records, active means well fitted inhibition curve with a large enough effect in the signal ratio, with a control signal flat (not every such curve was filed as active); inconclusive means small, poorly fitted or top-dose-only effect, or effect the other way, or a change in a side signal; inactive means flat fitted curve, though single readings scatter; the % refers to the signal ratio. Potencies of inconclusive entries are doubtful fits and often do not repeat.

Experiment: qHTS Assay for Lipid Storage Modulators in Drosophila S3 Cells
Conditions: BODIPY lipid droplet fluorescence, 18-24 h, cells fed with added oleic acid; lipid storage change, negative = inhibition: at 46.1 µM (top of the series) unless noted
Summary of the method: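 Drosophila S3 cells loaded with oleic acid (400 uM, as added) and compounds at several concentrations; lipid droplets imaged by 488-nm laser-scanning cytometry, 500–530 nm intensity and object ratio to cell channel. Percent activity normalized to 20 uM Triacsin C.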
On the % scale 0 is the no-effect control and ±100 the full control effect; potency means the concentration at half of the fitted maximal effect.

| SMILES | lipid storage change, negative = inhibition | Potency |
| --- | --- | --- |
| COc1ccccc1N(C(=O)CN1C(=O)c2ccccc2S1(=O)=O)C(C(=O)NCC1CCCO1)c1ccc(F)cc1 (centres undefined) | inconclusive: -3.32% | – |
| Cc1cc2cc(CCNC(=O)CC(C)C)c(=O)[nH]c2cc1C | inconclusive: 26.8% | – |
| Fc1ccc(-n2cc(CNCCc3ccncc3)c(-c3ccccc3Cl)n2)cc1 | inconclusive: -8.44% | – |
| CCc1ccccc1S(=O)(=O)Cc1ccc(C(=O)NCc2cccs2)o1 | – | inconclusive: 0.0046 µM [rising, full curve, poor fit] |
| S=C(NCCCc1ccccc1)Nc1ccc(Br)cc1 | inconclusive: -100% | – |
| O=C(CCN1CCCC1=O)NC1CCCc2c1cnn2-c1ccc(F)cc1F (centres undefined) | – | inconclusive: 6.51 µM [activator, single point] |
| CSc1ncc(CN2CCC(C(=O)Nc3cccc(-c4cscn4)c3)CC2)cn1 | – | inconclusive: 32.6 µM [falling, partial curve, poor fit] |
| CCc1ccc2[nH]c(=O)c(CN(Cc3nnnn3C3CCCC3)C3CCCCC3)cc2c1 | inconclusive: 58.1% | – |
| Cc1cccc(NC(=O)/C(C#N)=C\c2cn(CC(=O)O)c3ccccc23)c1 | inconclusive: 16% | – |
| CCCS(=O)(=O)N1CCCC(C(=O)Nc2ccc3c(c2)CCC3)C1 (centres undefined) | inconclusive: 9.96% | – |
| Cc1cc(NC(=O)c2ccc(S(=O)(=O)N3CCOCC3)cc2)nc2c1c(=O)oc1ccccc12 | inactive | – |
| CCOc1ccc(NC(=O)CCC(=O)Nc2nnc(CC)s2)cc1 | inconclusive: 302% | – |
| COc1ccc(Cl)cc1C(=O)NCCN1CCOCC1 | – | inconclusive: 20.6 µM [activator, single point] |
| Cc1ccc2ncccc2c1 | inconclusive: 13.8% | – |
| Cc1ccc(S(=O)(=O)N[C@@H](Cc2ccccc2)C(=O)N2CCC(C(=O)N[C@@H](CC(C)C)C(=O)O)CC2)cc1 | inconclusive: 21% | – |
| O=C(C[n+]1ccc(C(=O)NCc2ccccc2)cc1)c1ccc(Cl)cc1 | inconclusive: 13% | – |
| COc1ccccc1CNC(=O)C(=O)Nc1ccc(C(=O)N2CCC(C)CC2)cc1 | – | inconclusive: 29.1 µM [activator, single point] |
| CCOC(=O)C1CCCCN1Cc1cccc(C(F)(F)F)c1 (centres undefined) | inconclusive: -1.12% | – |
| CCC(C)NC(=O)Cn1cnc2sc(C)c(S(=O)(=O)N3CCN(c4ccccc4OC)CC3)c2c1=O (centres undefined) | inconclusive: -100% | – |
| CC1=C(C(N)=O)C(c2ccccc2)n2nc(-c3cccc(C)c3)nc2N1 (centres undefined) | inconclusive: -4.67% | – |
| COc1ccc(CC(CC(=O)O)C(=O)Nc2ccccc2)cc1 (centres undefined) | inconclusive: -0.168% | – |
| Cc1ccc(-n2ncc3c2CCCC3NC(=O)c2ccoc2)cc1C (centres undefined) | – | inconclusive: 0.0794 µM [cytotoxic, full curve, poor fit] |
| CCCNC(=O)C(Cc1cccc(Cl)c1)NC(=O)c1ccc(C#N)cc1 (centres undefined) | inconclusive: -11.5% | – |
| O=C(COC(=O)Cn1cnc2ccccc21)NCCc1ccc(Cl)cc1 | – | active: 8.2 µM |
| O=C(NNC(=O)C12CC3CC(CC(C3)C1)C2)c1cccc(O)c1 | – | inconclusive: 6.51 µM [activator, single point] |

Looked up by compound from above:

| SMILES | lipid storage change, negative = inhibition | Potency |
| --- | --- | --- |
| CCCNC(=O)C(Cc1cccc(Cl)c1)NC(=O)c1ccc(C#N)cc1 (centres undefined) | inconclusive: -11.5% | – |
| CCOc1ccc(NC(=O)CCC(=O)Nc2nnc(CC)s2)cc1 | inconclusive: 302% | – |
| Cc1cc(NC(=O)c2ccc(S(=O)(=O)N3CCOCC3)cc2)nc2c1c(=O)oc1ccccc12 | inactive | – |

(listing goes on)

| SMILES | lipid storage change, negative = inhibition | Potency |
| --- | --- | --- |
| CCOC(=O)N1CCN(C(=O)c2ccccc2NC(=O)c2ccc(Br)cc2)CC1 | – | inconclusive: 0.0052 µM [falling, full curve, poor fit] |
| CC(C)(C)C(=O)N1CCN(c2ccc([N+](=O)[O-])c(-n3nc(-c4ccccc4)c4ccccc4c3=O)c2)CC1 | inconclusive: 22.4% | – |
| N#CCCN1CCN(Cc2ccccc2)CCC1=O | – | inconclusive: 9.2 µM [activator, partial curve, poor fit] |
| Brc1ccccc1C1Nc2cccc3cccc(c23)N1 | – | inconclusive: 16.4 µM [falling, single point] |
| CCN(CC)c1ccc(NC(=O)c2ccc(=O)[nH]c2)cc1S(=O)(=O)Nc1ccc(OC)cc1 | inconclusive: 18.3% | – |
| CC(=O)Oc1c(C)c(OC(C)=O)c2c(c1C(C)=O)OC1CC(=O)C(C(C)=O)=C(O)C21C (centres undefined) | inconclusive: 7.5% | – |
| CNS(=O)(=O)c1cccc(C(=O)OCC(=O)c2ccc3c(c2)OCCO3)c1 | inconclusive | – |
| O=C(CSc1ccc(Cl)cc1)NC1=NN(c2ccccc2)C(=O)C1 | inconclusive: 12.2% | – |
| Cc1cccc(NC(=O)CSc2nc(C)nc3c2c(=O)n(C)c(=O)n3C)c1 | inconclusive: -0.197% | – |
| CN1CCN(CCc2nc3cc(NC(=O)COc4ccc(Cl)cc4)ccc3n2C)CC1 | – | inconclusive: 11.6 µM [activator, single point] |
| CCOC(=O)N1CCN(C(=O)COc2ccc(Br)cc2)CC1 | – | inconclusive: 16.4 µM [activator, partial curve] |
| COc1ccc(C(=O)NC=C2C(=O)OC(C)(C)OC2=O)cc1 | inconclusive: -12.1% [at 9.22 µM] | – |
| CC(C)c1ccc(N(CC(=O)NC2CCCCC2)C(=O)CNC(=O)c2ccco2)cc1 | – | inconclusive: 29.1 µM [falling, single point] |
| COc1ccc(C(C)NC(=S)NCc2ccc(F)cc2)cc1 (centres undefined) | inconclusive: -12.2% | – |
| Cc1ccc(S(=O)(=O)N2CCN(C(=O)C3Cc4ccccc4CN3C(=O)c3ccco3)CC2)cc1 (centres undefined) | inconclusive: -20.8% | – |
| Cc1noc(C)c1CSc1nnc(-c2ccccc2F)n1CCc1ccccc1 | inconclusive: -5.08% | – |
| COc1ccc(N2CCN(C(CNC(=O)c3ccco3)c3ccco3)CC2)cc1 (centres undefined) | – | inconclusive: 8.2 µM [activator, partial curve] |
| CC(=O)c1cccc(NC(=S)N2CCN(S(=O)(=O)c3ccccc3)CC2)c1 | inconclusive: 16% | – |
| CCOC(=O)CCC(NC(=O)CCC(=O)NC(CCC(=O)OCC)C(=O)OCC)C(=O)OCC (centres undefined) | inconclusive: -5.98% | – |
| CCN(CC(=O)NCc1ccc(Cl)cc1)C(=O)CCOc1ccccc1C | inconclusive | – |
| CCN(Cc1ccc2c(c1)OCO2)C(=O)CSc1ncnc2sccc12 | inconclusive: 16.4% | – |
| O=S(Cc1cc(Sc2ccccc2)nc(-c2ccccc2)n1)c1ccccc1 (centres undefined) | – | inconclusive: 4.61 µM [activator, partial curve] |
| CN(C)S(=O)(=O)c1ccc(-c2csc(N/N=C/c3ccc(O)cc3)n2)cc1 | inconclusive: -17.1% | – |
| C=C(C)CSc1nnc2n(C)c(=O)c3c4c(sc3n12)CCC4 | – | inconclusive: 1.16 µM [activator, partial curve] |
| COc1ccc(-c2noc(-c3ccccc3C(=O)NCc3ccco3)n2)cc1OC | – | inconclusive: 0.731 µM [rising, single point] |

| SMILES | lipid storage change, negative = inhibition | Potency |
| --- | --- | --- |
| NS(=O)(=O)c1ccc(Nc2nc3ccccc3nc2NS(=O)(=O)c2cccc([N+](=O)[O-])c2)cc1 | inconclusive: 14.6% | – |
| CCOc1cccc(C(=O)NC(=S)Nc2cccc(NC(=O)c3ccccc3Cl)c2)c1 | inconclusive: -9.27% | – |
| COC(=O)c1c(NC(=S)Nc2ccc(CC(=O)O)cc2)sc(C)c1C | inconclusive: -0.567% | – |
| Cc1ccc(S(=O)(=O)N2CCN(C(=O)c3ccc(COc4ccccc4)o3)CC2)cc1 | inconclusive: 22% | – |
| COc1ccc(-n2c(SCC(=O)Nc3ccc4c(c3)OCO4)nc3c(c2=O)SCC3)cc1 | inconclusive: 18.8% [at 9.22 µM] | – |
| COc1ccc(-n2c(SCC(N)=O)nnc2-c2ccco2)cc1 | – | inconclusive: 11.6 µM [falling, partial curve] |
| C/C(=N\Nc1nccnc1Cl)c1c(F)c(F)c(F)c(F)c1F | inconclusive: -11.3% | – |
| CC1CCN(C(=O)CSc2nnc(-c3ccco3)o2)CC1 | – | inconclusive: 0.0052 µM [activator, full curve, poor fit] |
| O=C(Cn1ncc2c(=O)oc3ccccc3c21)NCCC1=CCCCC1 | inconclusive: -0.0725% | – |
| Cc1c(C(=O)NC2CCCCC2C)oc2ccccc12 (centres undefined) | – | inconclusive: 29.1 µM [falling, single point] |
| O=C(Cc1ccc(Cl)cc1Cl)Nc1ccncc1 | inconclusive: -42.3% [cytotoxic] | – |
| Cc1cnc(-c2nnc(N(C)C(=O)c3cccnc3)s2)cn1 | inconclusive: 47.6% | – |
| CC(C)(C)NC(=O)CN(c1cccc([N+](=O)[O-])c1)S(=O)(=O)c1ccccc1 | inconclusive: -20.5% | – |
| CCOC(=O)c1sc(N)c(C#N)c1CSc1nnc(C2CCCCC2)n1N | – | inconclusive: 32.6 µM [falling, partial curve, poor fit] |
| CCCS(=O)(=O)c1ccc(COC(=O)c2ccc(NC(C)=O)cc2)cc1 | inconclusive: 26.5% | – |
| O=C(Nc1ccccc1N1CCOCC1)c1cc2c(s1)CCCCC2 | inconclusive: 15.8% | – |
| O=C(CSCc1cccc(CSCC(=O)Nc2ccccc2)n1)Nc1ccccc1 | inconclusive: -4.76% | – |
| CCc1ccc(C(=O)N/N=C/c2ccncc2)s1 | inconclusive: 3.68% | – |
| CC(C)(C)c1cc(C(=S)N2CCN(CCO)CC2)cc(C(C)(C)C)c1O | inactive | – |
| CCN1CCN(c2ccc(NC(=O)c3cccc(N4CCCC4=O)c3)cc2)CC1 | inconclusive: 36% | – |
| O=C(N/N=C/c1cc(O)ccc1Br)c1cccnc1 | inconclusive: 9.68% | – |
| O=C(CCCC(=O)N(CC(=O)NC1CCCCC1)c1ccccc1F)Nc1ccccn1 | – | inconclusive: 5.17 µM [falling, full curve, poor fit] |
| O=C1CC(c2cc(-c3ccccc3)no2)C1 | – | inconclusive: 8.2 µM [activator, partial curve, poor fit] |
| O=C(Nc1ccc(Br)c(Cl)c1)C1CC1 | inconclusive: 23.1% | – |
